Literature values in patent US7241611B2, “Methods for synthesis of holo-photoactive yellow protein” (Universiteit Gent, priority 2002, dated 2007).

Columns and labels:
[1] = tested on: TAL enzyme by mutagenesis of the yeast Rhodotorula glutinis PAL/TAL enzyme; conditions: cited from earlier work
[2] = target: PAL-1 isozyme from parsley (Petroselinum crispum) (Petroselinum crispum, UniProt P24481); conditions: cited from earlier work

## N[C@@H](Cc1ccc(O)cc1)C(=O)O [L-Tyrosine, L-tyrosine]
[1]
  ratio of TAL activity to PAL activity: 1.7
[2]
  Km: 2500 µM
